Results from patent publication US20120190612A1, “METHODS OF TREATMENT” (CRC FOR ASTHMA AND AIRWAYS LTD., priority 2009, published 2012).
Some entries share one result that the patent states for a list of compounds.

B1: lamstatin: NC1 domain of the α5 chain of collagen type IV; human amino acid sequence SEQ ID NO:1; recombinant (protein, listed as Homo sapiens)
chain: GFLITRHSQTTDAPQCPQGTLQVYEGFSLLYVQGNKRAHGQDLGTAGSCLRRFSTMPFMFCNINNVCNFASRNDYSYWLSTPEPMPMSMQPLKGQSIQPFISRCAVCEAPAVVIAVHSQTIQIPHCPQGWDSLWIGYSFMMHTSAGAEGSGQALASPGSCLEEFRSAPFIECHGRGTCNYYANSYSFWLATVDVSDMFSKPQSETLKAGDLRTRISRCQVCMKRT
B2: tumstatin: NC1 domain of the α3 chain of collagen type IV; human sequence SEQ ID NO:3; commercially available tumstatin was used (protein, listed as Homo sapiens)
chain: GFVFTRHSQTTAIPSCPEGTVPLYSGFSFLFVQGNQRAHGQDLGTLGSCLQRFTTMPFLFCNVNDVCNFASRNDYSYWLSTPALMPMNMAPITGRALEPYISRCTVCEGPAIAIAVHSQTTDIPPCPHGWISLWKGFSFIMFTSAGSEGTGQALASPGSCLEEFRASPFLECHGRGTCNYYSNSYSFWLASLNPERMFRKPIPSTVKAGELEKIISRCQVCMKKRH

Tested on: LAM nodule cells
Test: MTT cell viability assay, LAM nodule cells
Type: cell-based
Settings: 72 hrs, n=6
Protocol: To determine the function of lamstatin, human primary lymphatic endothelial cells (HMVEC-LLy cells) were exposed to various concentrations of lamstatin and an MTT assay was performed. As a comparison, commercially available tumstatin was used. Specifically, to assess cell viability 4×10^3 HMVEC-LLy cells were seeded per well in 100 μl complete EBM-2 media (with bullet kit, Lonza) and incubated for 2 hrs at 37° C., 5% CO2. After this period lamstatin, tumstatin and respective vehicles (1 nM EDTA, pH 3.0) were prepared in complete EBM-2 as serial dilutions in a separate plate and added. Cells were grown for 24 hrs before MTT (1 mg/mL in PBS) was added. After 6 h of further incubation cells were lysed overnight with 10% SDS/0.01 M HCl and measured the following day in a plate reader at 570 nm.
The inventors isolated lung cells from a LAM patient, which cells originated from the LAM nodules. These cells were termed according to their location within the nodule, as intermediate layer in the nodule, centre cells and outer nodule cells. These cells were then treated with lamstatin or tumstatin and cell viability measured after 72 hrs. The MTT viability assay was performed as described above in Example 1.

Molecule	maximum reduction of cell viability [%]
B1	> 50
B2	> 50
